From paper PMC11743138, “Structural basis for the interaction between the Drosophila RTK Sevenless (dROS1) and the GPCR BOSS” (Nature Communications, 2025)
These are yes or no findings as the source states them, for the method shown. Sequences can lack the tags named with a protein.

Molecular target: dROS1SEQ (dROS1 extracellular construct with FSI 876-878 changed to SEQ) (D. melanogaster)
Test: SPR; BIAcore T200; dROS1 constructs covalently coupled (NHS/EDC) to a CM5 chip, BOSS ECR proteins flowed over at 10 µL/min for 180 s; 20 mM HEPES pH 7.5, 100 mM NaCl; plateau RU against BOSS concentration fitted to a single-site specific binding model; both purified

B1: BOSS (Bride Of Sevenless) extracellular region, His tag cleaved (domain or fragment, D. melanogaster, UniProt P22815 102-510, looked up)
chain: GTTASLVPEICLNGLQLTVNSADEGTVIRKQEEFVKILEGDVVLSVLTKDPDSALFVINRVNQANLIMADFEIGIRAISIDNASLAENLLIQEVQFLQQCTTYSMGIFVDWELYKQLESVIKDLEYNIWPIPGTRAHLFPKVAHLLHQMPWGEKIASVEIATETLEMYNEFMEAARQEHMCLMHFKSDDNVYIMFGNKLASHFKENGTLFSVPTDRTDDEFLADLPNRAFVLMENEIDLSTAVELDATPTALDEILIGKSVLPSRVLSFAGSIIDLMNWLRGSLSKHCKRGEEHDLYVLESCFNFLNFIEDWRTSEYRQAHDTAEILSLLLMRKLGTAMNFQMYQKKVLTLDKITGESRTELREIASQNFVTNVTTYYHYNRDNHTSLELKTKFGQVFNCQYSAGDNRR
notes: Bride of sevenless (BOSS), D. melanogaster, extracellular region, residues 102-510; also called BOSS ECR; BOSSWT; source: Trichoplusia ni (Hi5) cells, baculovirus, purified from the medium (Ni resin, SEC; Factor Xa cleavage, Ni flow-through, SEC); not shown: His8, N-terminal, cleaved
**Q.** Which binding does the source give for B1 here?
**A.** no binding
